16 molecules from paper PMC12390935 can be followed below.

The chains behind the UniProt entries cited, without tags or fusion partners. Where a name states a change or a piece, a line headed by the entry shows the natural chain unless it says otherwise. A line that says so, or that is headed by a name, gives the form on record, which may keep a tag or linker. Residues count along the entry.
UniProt Q9UM07: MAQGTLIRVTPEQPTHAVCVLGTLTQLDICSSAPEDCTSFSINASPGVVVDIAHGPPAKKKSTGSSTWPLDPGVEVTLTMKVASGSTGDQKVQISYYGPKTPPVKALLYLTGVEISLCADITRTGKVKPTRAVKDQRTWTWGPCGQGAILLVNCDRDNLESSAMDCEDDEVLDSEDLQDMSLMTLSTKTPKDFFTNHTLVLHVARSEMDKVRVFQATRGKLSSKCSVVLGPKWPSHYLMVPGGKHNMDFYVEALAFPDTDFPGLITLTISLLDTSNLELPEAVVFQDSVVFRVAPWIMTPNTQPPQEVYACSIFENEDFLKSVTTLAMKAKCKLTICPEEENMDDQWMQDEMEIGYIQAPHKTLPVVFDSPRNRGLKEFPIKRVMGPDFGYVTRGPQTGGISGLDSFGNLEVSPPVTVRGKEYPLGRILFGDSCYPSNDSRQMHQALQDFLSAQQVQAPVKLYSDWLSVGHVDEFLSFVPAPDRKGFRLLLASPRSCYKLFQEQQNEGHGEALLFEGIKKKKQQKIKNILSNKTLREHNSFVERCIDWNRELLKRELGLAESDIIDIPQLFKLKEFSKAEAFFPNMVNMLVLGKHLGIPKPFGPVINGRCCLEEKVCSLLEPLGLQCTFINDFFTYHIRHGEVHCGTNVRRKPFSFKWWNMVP
GST-PAD4-N (N-terminal half of PAD4, aa 1-293, fused to glutathione S-transferase): residues 1-293 of Q9UM07
GST-PAD4-C (C-terminal half of PAD4, aa 294-600, fused to glutathione S-transferase): residues 294-600 of Q9UM07
UniProt P14598: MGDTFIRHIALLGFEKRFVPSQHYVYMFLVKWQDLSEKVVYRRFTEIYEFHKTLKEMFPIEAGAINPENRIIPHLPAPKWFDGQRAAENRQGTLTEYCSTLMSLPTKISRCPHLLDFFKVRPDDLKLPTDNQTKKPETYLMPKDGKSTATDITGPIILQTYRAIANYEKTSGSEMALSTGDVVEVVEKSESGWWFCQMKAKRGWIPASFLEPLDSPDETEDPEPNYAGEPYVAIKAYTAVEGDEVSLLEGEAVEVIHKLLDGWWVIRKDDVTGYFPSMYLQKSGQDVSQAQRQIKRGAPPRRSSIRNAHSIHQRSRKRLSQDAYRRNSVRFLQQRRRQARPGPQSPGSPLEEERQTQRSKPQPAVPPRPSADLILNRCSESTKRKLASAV
UniProt O75923: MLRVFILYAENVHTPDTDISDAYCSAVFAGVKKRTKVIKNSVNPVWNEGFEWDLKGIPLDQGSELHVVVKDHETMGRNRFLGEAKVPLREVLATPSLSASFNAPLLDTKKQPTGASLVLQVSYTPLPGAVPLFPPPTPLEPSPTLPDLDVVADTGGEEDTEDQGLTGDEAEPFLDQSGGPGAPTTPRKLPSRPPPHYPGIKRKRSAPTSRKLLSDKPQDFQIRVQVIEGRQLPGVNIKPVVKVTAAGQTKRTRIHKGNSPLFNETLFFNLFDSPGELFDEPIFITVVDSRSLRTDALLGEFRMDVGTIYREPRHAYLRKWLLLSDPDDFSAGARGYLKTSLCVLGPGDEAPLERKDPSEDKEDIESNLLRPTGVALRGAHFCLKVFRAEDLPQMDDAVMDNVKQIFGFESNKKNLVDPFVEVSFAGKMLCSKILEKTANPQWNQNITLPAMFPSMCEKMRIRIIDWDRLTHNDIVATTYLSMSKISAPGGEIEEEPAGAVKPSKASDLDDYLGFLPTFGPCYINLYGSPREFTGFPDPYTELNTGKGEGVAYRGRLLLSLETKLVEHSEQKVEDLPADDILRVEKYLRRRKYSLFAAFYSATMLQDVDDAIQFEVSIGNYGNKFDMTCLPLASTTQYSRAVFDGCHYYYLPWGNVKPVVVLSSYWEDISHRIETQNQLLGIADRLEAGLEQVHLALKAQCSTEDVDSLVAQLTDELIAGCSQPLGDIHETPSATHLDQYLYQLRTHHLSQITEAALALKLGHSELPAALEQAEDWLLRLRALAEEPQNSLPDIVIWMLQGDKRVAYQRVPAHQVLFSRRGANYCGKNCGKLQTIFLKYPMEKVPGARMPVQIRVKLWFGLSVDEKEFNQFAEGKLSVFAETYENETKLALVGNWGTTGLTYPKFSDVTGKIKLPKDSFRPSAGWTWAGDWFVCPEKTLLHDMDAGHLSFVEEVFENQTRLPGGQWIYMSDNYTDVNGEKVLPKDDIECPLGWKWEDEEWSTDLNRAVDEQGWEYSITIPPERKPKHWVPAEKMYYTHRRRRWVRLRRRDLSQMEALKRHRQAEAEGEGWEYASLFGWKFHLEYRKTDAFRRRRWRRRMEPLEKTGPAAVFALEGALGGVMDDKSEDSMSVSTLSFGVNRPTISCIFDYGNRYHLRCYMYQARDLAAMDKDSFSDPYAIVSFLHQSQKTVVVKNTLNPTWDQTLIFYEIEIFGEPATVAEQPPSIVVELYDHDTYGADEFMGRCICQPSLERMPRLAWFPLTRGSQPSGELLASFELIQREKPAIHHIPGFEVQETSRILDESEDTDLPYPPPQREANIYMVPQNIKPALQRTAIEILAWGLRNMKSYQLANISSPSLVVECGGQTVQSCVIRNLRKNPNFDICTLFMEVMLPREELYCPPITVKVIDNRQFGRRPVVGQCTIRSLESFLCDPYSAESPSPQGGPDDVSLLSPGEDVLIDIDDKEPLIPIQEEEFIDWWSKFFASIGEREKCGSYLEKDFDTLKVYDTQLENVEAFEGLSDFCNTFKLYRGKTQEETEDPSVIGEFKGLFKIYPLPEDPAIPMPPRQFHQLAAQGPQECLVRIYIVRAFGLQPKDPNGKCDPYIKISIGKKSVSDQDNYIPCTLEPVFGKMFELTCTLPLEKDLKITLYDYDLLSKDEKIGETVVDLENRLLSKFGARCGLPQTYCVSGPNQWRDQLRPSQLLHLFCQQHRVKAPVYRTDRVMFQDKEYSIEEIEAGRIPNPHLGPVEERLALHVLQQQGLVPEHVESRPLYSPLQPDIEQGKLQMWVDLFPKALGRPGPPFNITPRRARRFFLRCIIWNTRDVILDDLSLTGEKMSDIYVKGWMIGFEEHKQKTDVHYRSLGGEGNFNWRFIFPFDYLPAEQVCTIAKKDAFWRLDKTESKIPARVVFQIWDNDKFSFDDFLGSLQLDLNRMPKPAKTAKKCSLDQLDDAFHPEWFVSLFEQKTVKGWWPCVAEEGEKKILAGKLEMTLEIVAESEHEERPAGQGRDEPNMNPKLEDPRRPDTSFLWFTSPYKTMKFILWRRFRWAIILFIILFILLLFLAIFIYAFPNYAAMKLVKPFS
UniProt P12814: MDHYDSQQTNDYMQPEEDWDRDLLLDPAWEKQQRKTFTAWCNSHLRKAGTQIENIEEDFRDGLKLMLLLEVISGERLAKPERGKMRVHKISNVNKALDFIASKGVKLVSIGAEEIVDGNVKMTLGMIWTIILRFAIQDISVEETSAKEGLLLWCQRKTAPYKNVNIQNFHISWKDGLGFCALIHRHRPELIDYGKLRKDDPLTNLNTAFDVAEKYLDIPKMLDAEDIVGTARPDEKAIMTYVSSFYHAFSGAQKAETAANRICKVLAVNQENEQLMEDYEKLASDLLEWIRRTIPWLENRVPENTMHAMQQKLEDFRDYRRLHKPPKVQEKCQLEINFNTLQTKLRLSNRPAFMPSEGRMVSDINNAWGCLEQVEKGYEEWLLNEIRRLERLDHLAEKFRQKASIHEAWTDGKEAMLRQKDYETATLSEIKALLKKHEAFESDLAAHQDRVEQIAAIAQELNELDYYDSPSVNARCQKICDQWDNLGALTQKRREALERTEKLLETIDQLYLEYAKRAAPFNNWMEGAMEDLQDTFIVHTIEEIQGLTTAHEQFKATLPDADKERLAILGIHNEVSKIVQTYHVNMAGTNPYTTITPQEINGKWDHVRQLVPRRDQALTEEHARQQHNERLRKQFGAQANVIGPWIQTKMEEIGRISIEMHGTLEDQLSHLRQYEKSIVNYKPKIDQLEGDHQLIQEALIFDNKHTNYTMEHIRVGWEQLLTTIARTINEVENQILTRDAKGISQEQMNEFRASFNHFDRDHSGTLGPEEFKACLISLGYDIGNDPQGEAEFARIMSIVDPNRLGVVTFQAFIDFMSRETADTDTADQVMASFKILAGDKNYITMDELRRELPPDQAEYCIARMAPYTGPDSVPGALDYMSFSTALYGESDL
UniProt P60660: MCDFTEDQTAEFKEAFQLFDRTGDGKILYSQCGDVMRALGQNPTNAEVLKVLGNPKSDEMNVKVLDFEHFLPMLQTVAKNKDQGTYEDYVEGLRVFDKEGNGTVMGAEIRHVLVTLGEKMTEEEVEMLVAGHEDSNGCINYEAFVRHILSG
UniProt P35579: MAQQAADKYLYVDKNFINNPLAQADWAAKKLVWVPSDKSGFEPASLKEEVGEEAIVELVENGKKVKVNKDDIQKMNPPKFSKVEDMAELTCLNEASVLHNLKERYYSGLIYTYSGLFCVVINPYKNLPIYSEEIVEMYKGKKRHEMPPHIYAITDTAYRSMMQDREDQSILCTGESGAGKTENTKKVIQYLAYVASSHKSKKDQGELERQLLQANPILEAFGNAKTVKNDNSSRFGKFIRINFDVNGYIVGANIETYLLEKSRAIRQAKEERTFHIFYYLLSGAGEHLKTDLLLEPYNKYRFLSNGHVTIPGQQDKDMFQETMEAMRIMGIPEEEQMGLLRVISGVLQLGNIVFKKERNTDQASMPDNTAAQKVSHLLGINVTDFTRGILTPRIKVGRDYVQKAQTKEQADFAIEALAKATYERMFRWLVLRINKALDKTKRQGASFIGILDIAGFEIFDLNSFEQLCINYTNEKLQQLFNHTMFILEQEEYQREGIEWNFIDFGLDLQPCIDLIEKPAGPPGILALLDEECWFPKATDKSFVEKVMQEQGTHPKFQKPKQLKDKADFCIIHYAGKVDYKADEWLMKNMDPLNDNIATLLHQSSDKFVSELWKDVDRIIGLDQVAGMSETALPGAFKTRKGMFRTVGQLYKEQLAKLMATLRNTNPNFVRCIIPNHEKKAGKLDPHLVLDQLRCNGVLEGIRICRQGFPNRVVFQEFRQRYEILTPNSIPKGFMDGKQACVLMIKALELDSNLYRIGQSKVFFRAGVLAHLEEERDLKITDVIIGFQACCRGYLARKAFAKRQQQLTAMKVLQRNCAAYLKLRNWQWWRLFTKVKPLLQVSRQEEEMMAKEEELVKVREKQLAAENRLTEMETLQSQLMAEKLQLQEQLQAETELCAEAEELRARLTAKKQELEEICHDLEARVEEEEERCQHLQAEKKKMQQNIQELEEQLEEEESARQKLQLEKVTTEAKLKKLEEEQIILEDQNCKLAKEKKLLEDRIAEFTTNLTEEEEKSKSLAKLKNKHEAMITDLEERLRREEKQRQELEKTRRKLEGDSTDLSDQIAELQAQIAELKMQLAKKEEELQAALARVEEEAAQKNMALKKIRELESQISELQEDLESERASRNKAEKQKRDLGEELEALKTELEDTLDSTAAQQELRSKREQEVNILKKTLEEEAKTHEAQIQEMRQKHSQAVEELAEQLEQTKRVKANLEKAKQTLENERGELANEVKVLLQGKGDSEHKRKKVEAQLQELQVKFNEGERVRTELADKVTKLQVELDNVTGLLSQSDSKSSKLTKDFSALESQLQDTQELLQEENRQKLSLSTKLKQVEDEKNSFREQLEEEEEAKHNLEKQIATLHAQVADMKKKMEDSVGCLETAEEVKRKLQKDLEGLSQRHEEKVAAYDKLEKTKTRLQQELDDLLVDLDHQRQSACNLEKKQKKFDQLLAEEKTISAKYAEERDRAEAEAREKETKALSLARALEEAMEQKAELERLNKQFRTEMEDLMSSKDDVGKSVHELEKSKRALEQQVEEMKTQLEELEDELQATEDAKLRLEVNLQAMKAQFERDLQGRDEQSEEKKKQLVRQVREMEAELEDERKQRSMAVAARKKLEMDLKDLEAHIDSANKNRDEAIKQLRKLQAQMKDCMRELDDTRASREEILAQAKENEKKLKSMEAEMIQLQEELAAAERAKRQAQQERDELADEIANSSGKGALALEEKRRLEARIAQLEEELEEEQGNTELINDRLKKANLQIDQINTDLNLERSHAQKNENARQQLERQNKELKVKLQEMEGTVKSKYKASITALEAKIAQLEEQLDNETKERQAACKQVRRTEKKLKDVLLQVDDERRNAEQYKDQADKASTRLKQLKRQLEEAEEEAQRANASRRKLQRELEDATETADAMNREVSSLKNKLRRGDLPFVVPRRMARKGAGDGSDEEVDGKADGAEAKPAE
UniProt P06733: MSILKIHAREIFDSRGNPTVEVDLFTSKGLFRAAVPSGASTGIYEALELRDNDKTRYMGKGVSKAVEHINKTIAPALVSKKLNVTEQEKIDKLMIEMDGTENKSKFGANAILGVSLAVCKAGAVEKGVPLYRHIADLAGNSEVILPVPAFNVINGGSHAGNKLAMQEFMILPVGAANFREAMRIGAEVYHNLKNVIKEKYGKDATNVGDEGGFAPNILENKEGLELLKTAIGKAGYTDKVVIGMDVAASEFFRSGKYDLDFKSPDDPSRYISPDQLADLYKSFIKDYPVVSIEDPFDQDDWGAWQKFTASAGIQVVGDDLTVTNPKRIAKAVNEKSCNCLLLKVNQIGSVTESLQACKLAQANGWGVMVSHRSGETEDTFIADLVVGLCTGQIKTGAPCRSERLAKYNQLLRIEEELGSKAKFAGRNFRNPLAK

Read-outs that look alike come from different tables or passages of the source. These are yes or no findings as the source states them, for the method shown. In cells and extracts the contact can be indirect. These calls come from enrichment with a bait or labelling near it, and not all partners need be listed. For part of these data: A no says only that the protein was not detected with the bait.

Test [1] has as its target GST-PAD4-C (C-terminal half of PAD4, aa 294-600, fused to glutathione S-transferase) (human) (UniProt Q9UM07). The test is described as follows: affinity purification with mass spectrometry; GST pull-down: GST-PAD4-N, GST-PAD4-C or GST alone on glutathione agarose beads, incubated with RA neutrophil lysates at 4 °C overnight; on-bead trypsin digestion, LC-MS/MS; only the target purified.

In test [2] the target is GST-PAD4-N (N-terminal half of PAD4, aa 1-293, fused to glutathione S-transferase) (human) (UniProt Q9UM07). Described as above.
In test [3] the target is protein arginine deiminase 4 (PAD4), endogenous in neutrophils (human (endogenous in neutrophils)) (UniProt Q9UM07). The test is described as follows: affinity purification with mass spectrometry; anti-PAD4 immunoprecipitates (mAb OTI4H5; also a polyclonal and a human IgG4 anti-PAD4) from neutrophil lysates of patients with RA and healthy donors; 25 mM Tris/HCl pH 7.4, 150 mM NaCl, 1% Triton X-100; washes incl. 500 mM NaCl; on-bead trypsin digestion, LC-MS/MS; proteins of a control precipitate without antibody subtracted.

Test [4] deals with HA-tagged PAD4 (full length), expressed in 293T cells (human) (UniProt Q9UM07). The test is described as follows: affinity purification with mass spectrometry; anti-PAD4 or anti-HA (12CA5) immunoprecipitates from lysates of 293T cells transfected with or without HA-tagged PAD4; LC-MS/MS.
Test [5] has as its target protein arginine deiminase 4 (PAD4), endogenous in neutrophils (human (endogenous in neutrophils)) (UniProt Q9UM07). Description: affinity purification with mass spectrometry; anti-PAD4 immunoprecipitates (mAb OTI4H5; also a polyclonal and a human IgG4 anti-PAD4) from neutrophil lysates of patients with RA and healthy donors; 25 mM Tris/HCl pH 7.4, 150 mM NaCl, 1% Triton X-100; washes incl. 500 mM NaCl; on-bead trypsin digestion, LC-MS/MS; proteins of a control precipitate without antibody subtracted. This is another data set of the same source.

On to “neutrophil cytosolic factor-1 (NCF1), endogenous in neutrophils (from UniProt P14598 1-390)”, for which the binding entry in test [1] is reported as “no binding”; in test [2], “binds”; in test [3], “binds”.
For the molecule “filamin (FLNA), endogenous in neutrophils (from UniProt P21333 1-2647)”, the binding result in test [3] is on record as “binds”.
On the same count and under the same terms, in the case of “tropomyosin (TPM3), endogenous in neutrophils (from UniProt P06753-2)” it was “binds”.
Take “tubulin (TUBA1B), endogenous in neutrophils (from UniProt P68363 1-451)”: the binding result in test [3] is on record as “binds”.
For the molecule “dysferlin (DYSF), endogenous in neutrophils (from UniProt O75923 1-2080)”, in test [3], the binding entry was “binds”.
Same read-out and setting: in the case of “F-actin-capping protein subunit beta (CAPZB), endogenous in neutrophils (from UniProt P47756 1-272)” it was “binds”; in that of “alpha-actinin-1 (ACTN1), endogenous in neutrophils (from UniProt P12814 1-892)”, “binds”.
On to “vinculin (VCL), endogenous in neutrophils (from UniProt P18206-2)”, for which the binding result in test [1] and in test [3] was “binds” throughout.
With “myosin light chain 6 (MYL6), endogenous in neutrophils (from UniProt P60660 1-151)”, the binding result in test [3] is reported as “binds”.
On the same count and under the same terms, in the case of “tropomyosin (TPM2), endogenous in neutrophils (from UniProt P07951-2)” it was “binds”.
On to “myosin-9, endogenous in 293T cells (from UniProt P35579 1-1960)”, for which, in test [4], the binding entry is recorded as “binds”.
In the case of “enolase-1 (ENO1), endogenous in neutrophils (from UniProt P06733 1-434) (enzyme)”, the binding result in test [1] and in test [3] was “binds” throughout.

B1: grancalcin (GCA), endogenous in neutrophils (protein, UniProt P28676 1-217)
chain: MAYPGYGGGFGNFSIQVPGMQMGQPVPETGPAILLDGYSGPAYSDTYSSAGDSVYTYFSAVAGQDGEVDAEELQRCLTQSGINGTYSPFSLETCRIMIAMLDRDHTGKMGFNAFKELWAALNAWKENFMTVDQDGSGTVEHHELRQAIGLMGYRLSPQTLTTIVKRYSKNGRIFFDDYVACCVKLRALTDFFRKRDHLQQGSANFIYDDFLQGTMAI
As for B1, the binding result in test [1] and in test [5] was “binds” each time.

B2: plastin-2 (LCP1), endogenous in neutrophils (protein, UniProt P13796 1-627)
chain: MARGSVSDEEMMELREAFAKVDTDGNGYISFNELNDLFKAACLPLPGYRVREITENLMATGDLDQDGRISFDEFIKIFHGLKSTDVAKTFRKAINKKEGICAIGGTSEQSSVGTQHSYSEEEKYAFVNWINKALENDPDCRHVIPMNPNTNDLFNAVGDGIVLCKMINLSVPDTIDERTINKKKLTPFTIQENLNLALNSASAIGCHVVNIGAEDLKEGKPYLVLGLLWQVIKIGLFADIELSRNEALIALLREGESLEDLMKLSPEELLLRWANYHLENAGCNKIGNFSTDIKDSKAYYHLLEQVAPKGDEEGVPAVVIDMSGLREKDDIQRAECMLQQAERLGCRQFVTATDVVRGNPKLNLAFIANLFNRYPALHKPENQDIDWGALEGETREERTFRNWMNSLGVNPRVNHLYSDLSDALVIFQLYEKIKVPVDWNRVNKPPYPKLGGNMKKLENCNYAVELGKNQAKFSLVGIGGQDLNEGNRTLTLALIWQLMRRYTLNILEEIGGGQKVNDDIIVNWVNETLREAKKSSSISSFKDPKISTSLPVLDLIDAIQPGSINYDLLKTENLNDDEKLNNAKYAISMARKIGARVYALPEDLVEVNPKMVMTVFACLMGKGMKRV
As to B2, the binding result in test [5] was “binds”.

B3: myosin light chain 12A (MYL12A), endogenous in neutrophils (protein, UniProt P19105 1-171)
chain: MSSKRTKTKTKKRPQRATSNVFAMFDQSQIQEFKEAFNMIDQNRDGFIDKEDLHDMLASLGKNPTDEYLDAMMNEAPGPINFTMFLTMFGEKLNGTDPEDVIRNAFACFDEEATGTIQEDYLRELLTTMGDRFTDEEVDELYREAPIDKKGNFNYIEFTRILKHGAKDKDD
Regarding B3, the binding result in test [5] is recorded as “binds”.

B4: stomatin (STOM), endogenous in neutrophils (protein, UniProt P27105 1-288)
chain: MAEKRHTRDSEAQRLPDSFKDSPSKGLGPCGWILVAFSFLFTVITFPISIWMCIKIIKEYERAIIFRLGRILQGGAKGPGLFFILPCTDSFIKVDMRTISFDIPPQEILTKDSVTISVDGVVYYRVQNATLAVANITNADSATRLLAQTTLRNVLGTKNLSQILSDREEIAHNMQSTLDDATDAWGIKVERVEIKDVKLPVQLQRAMAAEAEASREARAKVIAAEGEMNASRALKEASMVITESPAALQLRYLQTLTTIAAEKNSTIVFPLPIDMLQGIIGAKHSHLG
In the case of B4, in test [5], the binding result is reported as “binds”.
